# Measurements as given in article PMC8125067.
# Chains of the proteins cited; added tags and fusions are not shown.
# UniProt Q9UHD2: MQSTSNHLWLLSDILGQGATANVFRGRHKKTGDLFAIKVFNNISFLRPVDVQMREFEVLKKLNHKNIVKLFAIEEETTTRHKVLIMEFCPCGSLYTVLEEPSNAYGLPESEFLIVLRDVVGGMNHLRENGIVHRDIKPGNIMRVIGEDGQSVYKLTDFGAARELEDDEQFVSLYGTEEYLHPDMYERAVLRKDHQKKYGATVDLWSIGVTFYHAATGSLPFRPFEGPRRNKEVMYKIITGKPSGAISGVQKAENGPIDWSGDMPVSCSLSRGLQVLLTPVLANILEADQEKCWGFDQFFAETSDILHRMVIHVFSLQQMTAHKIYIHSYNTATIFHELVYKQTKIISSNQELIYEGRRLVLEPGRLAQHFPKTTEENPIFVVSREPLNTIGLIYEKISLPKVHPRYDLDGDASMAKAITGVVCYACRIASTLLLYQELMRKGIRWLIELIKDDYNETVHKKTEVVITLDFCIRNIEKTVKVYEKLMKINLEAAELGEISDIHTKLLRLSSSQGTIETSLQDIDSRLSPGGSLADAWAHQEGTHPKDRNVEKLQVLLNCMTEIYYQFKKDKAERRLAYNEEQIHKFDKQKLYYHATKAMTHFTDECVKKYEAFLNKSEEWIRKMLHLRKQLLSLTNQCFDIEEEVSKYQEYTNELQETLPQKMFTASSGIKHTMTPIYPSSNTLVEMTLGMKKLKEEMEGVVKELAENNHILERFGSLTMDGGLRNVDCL
# No constants are given. Whether binding was seen depends on the method and setting. Binding seen in cells or lysates may run through a third protein. Binding calls can cover weak binding; strength is not graded here.
# Experiments:
# [1] = target: Flag-TRAF3 (TNF receptor-associated factor 3, amplified from DF-1 cells) (chicken (amplified from DF-1 cells)); assay: co-IP; HEK293T co-transfected 48 h with a Flag-tagged bait and a Myc-tagged prey (in some panels with HA-UbK33, HA-UbK33R or HA-UbK11); NP-40 lysis buffer with PMSF; anti-Flag mouse MAb and protein A/G PLUS-agarose, 4°C, 4 h; blots with anti-Flag and anti-Myc rabbit PAbs
# [2] = target: Flag-TRAF3 (TNF receptor-associated factor 3, amplified from DF-1 cells) (chicken (amplified from DF-1 cells)); assay: co-IP; HEK293T co-transfected 48 h with Flag-TRAF3 and Myc-TBK1 along with an empty vector or a vector expressing VP3 (or VP3△CC1, with HA-UbK33); anti-Flag mouse MAb; blots with anti-Flag and anti-Myc rabbit PAbs
substance,measurement,setting,value
Myc-TBK1 (from UniProt Q9UHD2 1-729),binding,[1],binds
same,binding,[2],binds
